# Test results reported in PubChem BioAssay AID220 (DTP/NCI, 2004).
# The list shows only some results of the screen, not a fair sample: it is rich in T/C values a quarter to a half above the control, in often repeated tests (any T/C) and in doses without a T/C. Other doses and runs of a compound stand elsewhere. T/C: endpoint of the treated group in % of that of the vehicle group. Schedule codes are those of the source, taken here to give the interval after Q, in days (D) or hours (H), and the number of doses after X. Some values lie below zero, which means that the treated tumours became smaller. Some T/C values are followed by the survivors on the day toxicity was checked, most often the fifth; where none is given, no animal had died by that day. Some entries give survivors of the animals treated and no T/C: the source files T/C as zero there, which appears to mark a toxic dose or a test without result, not a measured value. Counts of survivors are from the toxicity check (mostly the fifth day) where no day follows; animals may have died later. Some entries were tested several times; the values are given in rising order.
# Tested on: CD8F1 mice, subcutaneous mammary adenocarcinoma, T/C%
# Assay: NCI In Vivo Anticancer Drug Screen. Data for tumor model Mammary Adenocarcinoma CD8F1 (subcutaneous) in CD8F1
# Conditions: higher T/C = larger tumour
# In short: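 Ratio of treated to vehicle-control outcome, based on either survival or tumor size, in mice bearing transplantable tumors given the test compound.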
# [1] = T/C endpoint: median tumor weight change, dose: 500.0 mg/kg/injection, schedule: Q01DX001 (ip), vehicle: saline with Tween-80
# [2] = T/C endpoint: median tumor weight change, dose: 1000.0 mg/kg/injection, schedule: Q01DX001 (ip), vehicle: saline with Tween-80
# [3] = T/C endpoint: median tumor weight change, dose: 250.0 mg/kg/injection, schedule: Q01DX001 (ip), vehicle: saline with Tween-80, evaluated on day 33
smiles,measurement,setting,value
COc1cccc2c1C(=O)c1c(O)c3c(c(O)c1C2=O)C[C@@](O)(C(=O)COC(=O)c1cccnc1)C[C@@H]3OC1CC(N)C(O)C(C)O1 (some centres not stated),survivor count,"T/C endpoint: median tumor weight (est.), dose: 4.0 mg/kg/injection, schedule: Q07DX005 (ip), vehicle: saline",6 of 10 on day 30
same,survivor count,"T/C endpoint: median tumor weight (est.), dose: 8.0 mg/kg/injection, schedule: Q07DX005 (ip), vehicle: saline",0 of 10 on day 30
same,survivor count,"T/C endpoint: median tumor weight (est.), dose: 16.0 mg/kg/injection, schedule: Q07DX005 (ip), vehicle: saline",0 of 10 on day 30
COc1cccc2c1C(=O)c1c(O)c3c(c(O)c1C2=O)C[C@@](O)(C(C)=O)C[C@@H]3OC1CC(N)C(O)C(C)O1 (some centres not stated),T/C,"T/C endpoint: median tumor weight (est.), dose: 0.8 mg/kg/injection, schedule: Q07DX005 (ip), vehicle: saline, evaluated on day 30",139 % of control
same,T/C,"T/C endpoint: median tumor weight (est.), dose: 1.2 mg/kg/injection, schedule: Q07DX005 (ip), vehicle: water, evaluated on day 30",141 % of control [9 of 10 alive]
same,survivor count,"T/C endpoint: median tumor weight (est.), dose: 4.0 mg/kg/injection, schedule: Q07DX005 (ip), vehicle: water",5 of 10 on day 30
same,survivor count,"T/C endpoint: median tumor weight (est.), dose: 8.0 mg/kg/injection, schedule: Q07DX005 (ip), vehicle: water",1 of 10 on day 30
same,survivor count,"T/C endpoint: median tumor weight (est.), dose: 16.0 mg/kg/injection, schedule: Q07DX005 (ip), vehicle: water",0 of 10 on day 30
same,survivor count,"T/C endpoint: median tumor weight (est.), dose: 32.0 mg/kg/injection, schedule: Q07DX005 (ip), vehicle: water",0 of 10 on day 30
CC(=O)N(C)c1ccc(Nc2cc(C)[nH]c3ccc4ncnc4c23)cc1,survivor count,"T/C endpoint: median tumor weight change, dose: 250.0 mg/kg/injection, schedule: Q01DX001 (ip), vehicle: saline",0 of 10 on day 39 and 3 of 10 on day 31
same,survivor count,"T/C endpoint: median tumor weight change, dose: 500.0 mg/kg/injection, schedule: Q01DX001 (ip), vehicle: saline",0 of 10 on day 39 and 1 of 10 on day 31
same,survivor count,"T/C endpoint: median tumor weight change, dose: 1000.0 mg/kg/injection, schedule: Q01DX001 (ip), vehicle: saline",0 of 10 on day 39 and 1 of 10 on day 31
COC1CC(C)C(OC)C2=CC(=O)C=C(NC(=O)/C(C)=C/C=C\C(C)C(OC(N)=O)/C(C)=C\C(C)C1OC)C2=O (configuration not stated),survivor count,"T/C endpoint: median tumor weight change, dose: 50.0 mg/kg/injection, schedule: Q01DX001 (ip), vehicle: saline + alcohol",3 of 10 on day 35
same,survivor count,"T/C endpoint: median tumor weight change, dose: 100.0 mg/kg/injection, schedule: Q01DX001 (ip), vehicle: saline + alcohol",2 of 10 on day 35
O=C(NO)c1ccc(O)c(O)c1,survivor count,"T/C endpoint: median tumor weight change, dose: 1200.0 mg/kg/injection, schedule: Q01DX001 (ip), vehicle: water",0 of 10 on day 34
same,survivor count,"T/C endpoint: median tumor weight change, dose: 2400.0 mg/kg/injection, schedule: Q01DX001 (ip), vehicle: water",0 of 10 on day 34
c1ccc2c(NCCCCCCNc3c4ccccc4nc4ccccc34)c3ccccc3nc2c1,T/C,"T/C endpoint: median tumor weight (est.), dose: 10.0 mg/kg/injection, schedule: Q07DX005 (ip), vehicle: Klucel (hydroxypropylcellulose) (HPC), evaluated on day 30",145 % of control
Nc1ncnc2c1ncn2C1OC(CO)CC1O (configuration not stated),T/C,"T/C endpoint: median tumor weight (est.), dose: 150.0 mg/kg/injection, schedule: Q07DX005 (ip), vehicle: Klucel (hydroxypropylcellulose) (HPC), evaluated on day 30",125 % of control [9 of 10 alive on day 30]
same,survivor count,"T/C endpoint: median tumor weight (est.), dose: 300.0 mg/kg/injection, schedule: Q07DX005 (ip), vehicle: Klucel (hydroxypropylcellulose) (HPC)",3 of 10 on day 30
O=P1(NCCCl)OCCCN1CCCl (configuration not stated),survivor count,"T/C endpoint: median tumor weight (est.), dose: 200.0 mg/kg/injection, schedule: Q07DX005 (ip), vehicle: saline",4 of 10
same,T/C,"T/C endpoint: median tumor weight change, dose: 50.0 mg/kg/injection, schedule: Q01DX001 (ip), vehicle: saline, evaluated on day 27",90 % of control
same,T/C,"T/C endpoint: median tumor weight change, dose: 50.0 mg/kg/injection, schedule: Q01DX001 (ip), vehicle: saline, evaluated on day 28",77 % of control
same,T/C,"T/C endpoint: median tumor weight change, dose: 50.0 mg/kg/injection, schedule: Q01DX001 (ip), vehicle: saline, evaluated on day 31",64 % of control [9 of 10 alive on day 31]
same,T/C,"T/C endpoint: median tumor weight change, dose: 50.0 mg/kg/injection, schedule: Q01DX001 (ip), vehicle: saline, evaluated on day 37",75 % of control
same,T/C,"T/C endpoint: median tumor weight change, dose: 100.0 mg/kg/injection, schedule: Q01DX001 (ip), vehicle: saline, evaluated on day 27",55 % of control
same,T/C,"T/C endpoint: median tumor weight change, dose: 100.0 mg/kg/injection, schedule: Q01DX001 (ip), vehicle: saline, evaluated on day 28",31 % of control
same,T/C,"T/C endpoint: median tumor weight change, dose: 100.0 mg/kg/injection, schedule: Q01DX001 (ip), vehicle: saline, evaluated on day 31",44 % of control
same,T/C,"T/C endpoint: median tumor weight change, dose: 100.0 mg/kg/injection, schedule: Q01DX001 (ip), vehicle: saline, evaluated on day 37",27 % of control
same,T/C,"T/C endpoint: median tumor weight change, dose: 200.0 mg/kg/injection, schedule: Q01DX001 (ip), vehicle: saline, evaluated on day 27",37 % of control
same,T/C,"T/C endpoint: median tumor weight change, dose: 200.0 mg/kg/injection, schedule: Q01DX001 (ip), vehicle: saline, evaluated on day 28",37 % of control
same,T/C,"T/C endpoint: median tumor weight change, dose: 200.0 mg/kg/injection, schedule: Q01DX001 (ip), vehicle: saline, evaluated on day 31",5 % of control
same,T/C,"T/C endpoint: median tumor weight change, dose: 200.0 mg/kg/injection, schedule: Q01DX001 (ip), vehicle: saline, evaluated on day 37",-20 % of control [9 of 10 alive on day 37]
same,T/C,"T/C endpoint: median tumor weight change, dose: 400.0 mg/kg/injection, schedule: Q01DX001 (ip), vehicle: saline, evaluated on day 27",8 % of control
same,T/C,"T/C endpoint: median tumor weight change, dose: 400.0 mg/kg/injection, schedule: Q01DX001 (ip), vehicle: saline, evaluated on day 28",-19 % of control
same,T/C,"T/C endpoint: median tumor weight change, dose: 400.0 mg/kg/injection, schedule: Q01DX001 (ip), vehicle: saline, evaluated on day 31",14 % of control
same,T/C,"T/C endpoint: median tumor weight change, dose: 400.0 mg/kg/injection, schedule: Q01DX001 (ip), vehicle: saline, evaluated on day 37",-31 % of control [9 of 10 alive on day 37]
O=S(=O)(CCl)OCCCl,survivor count,[1],6 of 10 on day 32
same,survivor count,[2],1 of 10 on day 32
C[C@]12CCC(=O)C=C1CC[C@@H]1[C@@H]2C(=O)C[C@@]2(C)[C@H]1CC[C@]2(O)C(=O)CO,survivor count,"T/C endpoint: median tumor weight (est.), dose: 1600.0 mg/kg/injection, schedule: Q07DX005 (ip), vehicle: Klucel (hydroxypropylcellulose) (HPC)",2 of 10 on day 30 and 6 of 10 on day 30
same,survivor count,"T/C endpoint: median tumor weight change, dose: 4000.0 mg/kg/injection, schedule: Q01DX001 (ip), vehicle: Klucel (hydroxypropylcellulose) (HPC)",6 of 10 on day 29
C[Si](C)(C)O/C=C1\CCCCC1=O,T/C,[3],136 % of control
same,survivor count,[1],2 of 10 on day 28 and 6 of 10 on day 33
same,survivor count,[2],0 of 10 on day 28 and 0 of 10 on day 33
N=C(N)SCc1c2ccccc2c(CSC(=N)N)c2ccccc12,T/C,"T/C endpoint: median tumor weight (est.), dose: 100.0 mg/kg/injection, schedule: Q07DX005 (ip), vehicle: saline, evaluated on day 30",135 % of control
same,T/C,"T/C endpoint: median tumor weight change, dose: 50.0 mg/kg/injection, schedule: Q01DX001 (ip), vehicle: suspension in saline, evaluated on day 30",139 % of control
COc1ccc(C(=O)C(CN(C)C)CN(C)C)cc1,survivor count,"T/C endpoint: median tumor weight change, dose: 62.5 mg/kg/injection, schedule: Q01DX001 (ip), vehicle: saline",3 of 10 on day 34
same,survivor count,"T/C endpoint: median tumor weight change, dose: 125.0 mg/kg/injection, schedule: Q01DX001 (ip), vehicle: saline",1 of 10 on day 34
O=c1n[n+]([O-])ccn1C1OC(CO)C(O)C1O (configuration not stated),T/C,"T/C endpoint: median tumor weight (est.), dose: 400.0 mg/kg/injection, schedule: Q07DX005 (ip), vehicle: saline, evaluated on day 32",126 % of control
CC(=O)C(O)N1C(=O)C=CC1=O (configuration not stated),T/C,"T/C endpoint: median tumor weight (est.), dose: 10.0 mg/kg/injection, schedule: Q07DX005 (ip), vehicle: saline, evaluated on day 30",141 % of control [7 of 10 alive]
CCOC(=O)C1(c2ccccc2)C(=O)Oc2ccccc21 (configuration not stated),T/C,[3],129 % of control
CCCCCCCCCCCCCCCCCCOCC(COP(=O)([O-])OCC[N+](C)(C)C)OC (configuration not stated),survivor count,"T/C endpoint: median tumor weight change, dose: 125.0 mg/kg/injection, schedule: Q01DX001 (ip), vehicle: suspension in saline",0 of 10 on day 28
same,survivor count,"T/C endpoint: median tumor weight change, dose: 250.0 mg/kg/injection, schedule: Q01DX001 (ip), vehicle: suspension in saline",0 of 10 on day 28
COc1c(CNC(=O)CCl)cc2[nH]c(C)cc2c1CNC(=O)CCl,T/C,"T/C endpoint: median tumor weight (est.), dose: 25.0 mg/kg/injection, schedule: Q07DX005 (ip), vehicle: Klucel (hydroxypropylcellulose) (HPC), evaluated on day 30",135 % of control
same,survivor count,"T/C endpoint: median tumor weight change, dose: 500.0 mg/kg/injection, schedule: Q01DX001 (ip), vehicle: Klucel (hydroxypropylcellulose) (HPC)",0 of 10 on day 29
same,survivor count,"T/C endpoint: median tumor weight change, dose: 1000.0 mg/kg/injection, schedule: Q01DX001 (ip), vehicle: Klucel (hydroxypropylcellulose) (HPC)",0 of 10 on day 29
same,survivor count,"T/C endpoint: median tumor weight change, dose: 2000.0 mg/kg/injection, schedule: Q01DX001 (ip), vehicle: Klucel (hydroxypropylcellulose) (HPC)",0 of 10 on day 29
COc1cc(NS(C)(=O)=O)ccc1Nc1c2ccccc2nc2ccccc12,survivor count,"T/C endpoint: median tumor weight (est.), dose: 128.0 mg/kg/injection, schedule: Q01DX001 (ip), vehicle: Klucel (hydroxypropylcellulose) (HPC)",0 of 10 on day 33
